Source: article PMC5447718
No constants are given. Whether binding was seen depends on the method and setting. Binding seen in cells or lysates may run through a third protein. Some results given as binding are weak or reduced against the parent protein; the word gives no strength.

Protein sequences, listed by entry. Tags and fused reporters are not part of them.
UniProt P16388: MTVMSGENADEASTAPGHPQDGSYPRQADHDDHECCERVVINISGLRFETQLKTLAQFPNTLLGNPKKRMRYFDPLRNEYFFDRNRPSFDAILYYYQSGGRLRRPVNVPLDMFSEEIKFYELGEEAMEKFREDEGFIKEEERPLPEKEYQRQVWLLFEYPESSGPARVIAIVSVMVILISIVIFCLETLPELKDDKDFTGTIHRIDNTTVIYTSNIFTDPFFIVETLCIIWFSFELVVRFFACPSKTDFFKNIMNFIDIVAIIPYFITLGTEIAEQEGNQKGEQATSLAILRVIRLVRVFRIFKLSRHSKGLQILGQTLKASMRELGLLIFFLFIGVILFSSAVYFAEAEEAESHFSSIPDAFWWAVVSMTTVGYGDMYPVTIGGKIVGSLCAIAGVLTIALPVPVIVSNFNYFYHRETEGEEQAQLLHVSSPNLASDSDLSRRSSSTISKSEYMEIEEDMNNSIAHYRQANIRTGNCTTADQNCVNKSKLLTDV
UniProt P63141: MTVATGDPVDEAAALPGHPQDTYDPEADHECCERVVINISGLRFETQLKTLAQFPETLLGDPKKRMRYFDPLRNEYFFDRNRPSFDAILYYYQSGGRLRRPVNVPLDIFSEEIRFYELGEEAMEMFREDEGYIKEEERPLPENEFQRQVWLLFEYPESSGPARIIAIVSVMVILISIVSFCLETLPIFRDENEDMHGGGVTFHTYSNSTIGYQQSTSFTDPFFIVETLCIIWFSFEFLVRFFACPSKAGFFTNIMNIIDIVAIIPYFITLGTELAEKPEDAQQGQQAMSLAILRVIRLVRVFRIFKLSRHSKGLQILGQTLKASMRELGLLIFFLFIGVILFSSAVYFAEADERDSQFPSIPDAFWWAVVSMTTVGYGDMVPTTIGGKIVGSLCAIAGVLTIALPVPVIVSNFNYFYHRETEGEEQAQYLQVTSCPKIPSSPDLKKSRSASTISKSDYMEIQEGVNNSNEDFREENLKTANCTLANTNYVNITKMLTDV

Molecular target: voltage-gated potassium channel subunit Kv1.1 (mouse (endogenous in cortical membranes; the methods say rat cortices)) (UniProt P16388)
Test: co-IP; rabbit anti-Kv1.1 (4 ug) on Protein A/G-agarose from pre-cleared solubilised cortical membranes (1 mg protein; 20 mM HEPES pH 7.2, 150 mM NaCl, 5 mM EDTA, 1% Triton X-100, 0.5% SDS); blot for Kv1.2; rabbit IgG as control; animals treated with DMSO or rapamycin (more Kv1.2 with rapamycin)

- binding: binds
Substance: voltage-gated potassium channel subunit Kv1.2 (from UniProt P63141 1-499)
